Measurements taken from PMC12482102.
No constants are given. Whether binding was seen depends on the method and setting. Binding seen in cells or lysates may run through a third protein. Some results given as binding are weak or reduced against the parent protein; the word gives no strength.

Chains of the proteins cited; added tags and fusions are not shown.
UniProt P35222: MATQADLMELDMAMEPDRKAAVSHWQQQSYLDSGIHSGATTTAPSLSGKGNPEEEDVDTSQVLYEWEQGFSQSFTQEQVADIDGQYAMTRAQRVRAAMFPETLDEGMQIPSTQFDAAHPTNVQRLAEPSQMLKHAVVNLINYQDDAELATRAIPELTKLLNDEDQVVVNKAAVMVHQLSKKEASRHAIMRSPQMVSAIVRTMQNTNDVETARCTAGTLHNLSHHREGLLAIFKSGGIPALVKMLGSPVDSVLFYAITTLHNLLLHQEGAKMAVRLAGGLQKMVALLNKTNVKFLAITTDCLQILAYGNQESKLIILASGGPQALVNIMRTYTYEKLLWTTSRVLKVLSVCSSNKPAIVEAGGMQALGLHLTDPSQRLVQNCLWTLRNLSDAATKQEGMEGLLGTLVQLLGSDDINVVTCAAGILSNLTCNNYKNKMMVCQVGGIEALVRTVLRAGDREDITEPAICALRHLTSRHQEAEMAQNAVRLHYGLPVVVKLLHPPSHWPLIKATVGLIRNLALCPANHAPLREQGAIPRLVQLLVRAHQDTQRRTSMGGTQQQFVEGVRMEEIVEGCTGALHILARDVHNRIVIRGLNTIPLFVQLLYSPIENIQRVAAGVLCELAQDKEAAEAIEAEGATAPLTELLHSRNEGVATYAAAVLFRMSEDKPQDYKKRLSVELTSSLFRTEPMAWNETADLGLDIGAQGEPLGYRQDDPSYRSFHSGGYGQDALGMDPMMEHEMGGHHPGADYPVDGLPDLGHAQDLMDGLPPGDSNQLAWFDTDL

T1: PSPC1 (paraspeckle component 1) (human (endogenous in MIAPaCa-2)) (UniProt Q8WXF1)
T1 sequence: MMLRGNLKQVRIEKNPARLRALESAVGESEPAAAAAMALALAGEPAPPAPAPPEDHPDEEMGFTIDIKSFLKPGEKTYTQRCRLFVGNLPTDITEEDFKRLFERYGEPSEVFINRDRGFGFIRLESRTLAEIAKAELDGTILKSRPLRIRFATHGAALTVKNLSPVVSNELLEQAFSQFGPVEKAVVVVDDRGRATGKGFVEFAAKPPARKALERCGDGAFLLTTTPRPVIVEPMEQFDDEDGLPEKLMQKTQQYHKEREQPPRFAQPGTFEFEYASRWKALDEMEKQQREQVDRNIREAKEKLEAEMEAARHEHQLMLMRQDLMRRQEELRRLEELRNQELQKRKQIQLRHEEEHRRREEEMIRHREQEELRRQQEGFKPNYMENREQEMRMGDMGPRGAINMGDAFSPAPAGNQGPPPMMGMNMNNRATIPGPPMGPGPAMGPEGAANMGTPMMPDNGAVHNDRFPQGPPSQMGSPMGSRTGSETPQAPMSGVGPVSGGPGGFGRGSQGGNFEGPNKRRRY


How the values were obtained:
[1] = target: T1, PSPC1 (paraspeckle component 1) (human (endogenous in MIAPaCa-2)); experiment: co-IP; endogenous proteins; cells lysed in IP lysis buffer with proteinase inhibitor, lysate precleared, anti-PSPC1 or anti-β-catenin antibody overnight, A/G dynabeads 4 h at 4 °C, elution in Laemmli buffer, western blot; also done in CASC19 overexpressing cells
[2] = target: β-Catenin (human (endogenous in MIAPaCa-2)) (UniProt P35222); experiment: as above

binding [1] | binding [2] | Molecule
binds |  | β-Catenin (from UniProt P35222 1-781)
 | binds | PSPC1 (paraspeckle component 1) (protein, UniProt Q8WXF1 1-523) MMLRGNLKQVRIEKNPARLRALESAVGESEPAAAAAMALALAGEPAPPAPAPPEDHPDEEMGFTIDIKSFLKPGEKTYTQRCRLFVGNLPTDITEEDFKRLFERYGEPSEVFINRDRGFGFIRLESRTLAEIAKAELDGTILKSRPLRIRFATHGAALTVKNLSPVVSNELLEQAFSQFGPVEKAVVVVDDRGRATGKGFVEFAAKPPARKALERCGDGAFLLTTTPRPVIVEPMEQFDDEDGLPEKLMQKTQQYHKEREQPPRFAQPGTFEFEYASRWKALDEMEKQQREQVDRNIREAKEKLEAEMEAARHEHQLMLMRQDLMRRQEELRRLEELRNQELQKRKQIQLRHEEEHRRREEEMIRHREQEELRRQQEGFKPNYMENREQEMRMGDMGPRGAINMGDAFSPAPAGNQGPPPMMGMNMNNRATIPGPPMGPGPAMGPEGAANMGTPMMPDNGAVHNDRFPQGPPSQMGSPMGSRTGSETPQAPMSGVGPVSGGPGGFGRGSQGGNFEGPNKRRRY
